Experimental data taken from the supplement of paper PMC10849652.
The other results are listed elsewhere or left out.

Amino acid sequences for entries named in this document (tags omitted). A change or cut given only in a name is not applied to a line headed by its entry.
UniProt Q93084: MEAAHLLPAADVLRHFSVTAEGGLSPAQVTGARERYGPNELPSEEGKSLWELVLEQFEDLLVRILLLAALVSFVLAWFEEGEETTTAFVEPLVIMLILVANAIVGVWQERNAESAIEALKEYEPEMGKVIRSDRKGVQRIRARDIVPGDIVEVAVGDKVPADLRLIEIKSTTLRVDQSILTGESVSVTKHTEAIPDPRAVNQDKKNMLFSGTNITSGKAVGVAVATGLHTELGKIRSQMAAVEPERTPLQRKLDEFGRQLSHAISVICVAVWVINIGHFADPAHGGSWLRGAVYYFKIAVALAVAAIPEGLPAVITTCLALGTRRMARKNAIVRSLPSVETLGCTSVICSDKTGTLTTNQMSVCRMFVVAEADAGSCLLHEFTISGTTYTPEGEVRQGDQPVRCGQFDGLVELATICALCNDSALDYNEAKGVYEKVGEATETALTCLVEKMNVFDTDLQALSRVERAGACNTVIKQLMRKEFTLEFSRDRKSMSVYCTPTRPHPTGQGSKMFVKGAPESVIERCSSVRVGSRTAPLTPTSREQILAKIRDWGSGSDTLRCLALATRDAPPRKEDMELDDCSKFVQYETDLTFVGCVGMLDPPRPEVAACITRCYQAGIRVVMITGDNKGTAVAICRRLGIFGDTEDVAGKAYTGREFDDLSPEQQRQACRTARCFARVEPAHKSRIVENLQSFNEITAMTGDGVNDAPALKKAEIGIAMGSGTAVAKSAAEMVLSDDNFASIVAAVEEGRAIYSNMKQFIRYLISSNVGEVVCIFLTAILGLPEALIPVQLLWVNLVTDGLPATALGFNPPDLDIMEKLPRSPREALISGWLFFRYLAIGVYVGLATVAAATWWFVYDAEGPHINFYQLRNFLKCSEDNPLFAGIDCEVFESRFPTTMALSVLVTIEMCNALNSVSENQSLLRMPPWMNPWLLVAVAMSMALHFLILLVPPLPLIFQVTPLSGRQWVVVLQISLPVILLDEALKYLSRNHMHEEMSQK
UniProt Q96IX5: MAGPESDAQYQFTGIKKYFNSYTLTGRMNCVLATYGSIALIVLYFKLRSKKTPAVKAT
UniProt Q7Z3C6: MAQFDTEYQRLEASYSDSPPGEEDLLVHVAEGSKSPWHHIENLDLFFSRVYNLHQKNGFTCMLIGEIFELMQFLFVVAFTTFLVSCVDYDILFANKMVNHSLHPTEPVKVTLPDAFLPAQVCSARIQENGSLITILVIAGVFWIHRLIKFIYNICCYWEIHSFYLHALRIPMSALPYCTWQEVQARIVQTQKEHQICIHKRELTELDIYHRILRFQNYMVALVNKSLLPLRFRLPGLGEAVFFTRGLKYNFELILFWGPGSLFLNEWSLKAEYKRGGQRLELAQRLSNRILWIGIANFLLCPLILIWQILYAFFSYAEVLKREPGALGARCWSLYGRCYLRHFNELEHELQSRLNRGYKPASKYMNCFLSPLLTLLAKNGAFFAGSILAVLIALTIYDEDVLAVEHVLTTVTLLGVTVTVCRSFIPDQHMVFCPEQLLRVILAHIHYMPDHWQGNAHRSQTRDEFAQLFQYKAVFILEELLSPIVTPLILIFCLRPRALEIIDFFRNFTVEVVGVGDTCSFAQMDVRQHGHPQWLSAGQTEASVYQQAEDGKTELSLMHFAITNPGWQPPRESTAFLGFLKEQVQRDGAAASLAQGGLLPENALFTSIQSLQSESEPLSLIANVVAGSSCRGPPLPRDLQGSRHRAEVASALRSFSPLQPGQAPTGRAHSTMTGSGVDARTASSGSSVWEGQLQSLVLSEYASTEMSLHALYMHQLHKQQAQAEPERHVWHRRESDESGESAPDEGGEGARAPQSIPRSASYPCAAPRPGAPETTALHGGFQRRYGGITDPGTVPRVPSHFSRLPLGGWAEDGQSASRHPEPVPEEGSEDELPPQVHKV
UniProt Q6NXE6: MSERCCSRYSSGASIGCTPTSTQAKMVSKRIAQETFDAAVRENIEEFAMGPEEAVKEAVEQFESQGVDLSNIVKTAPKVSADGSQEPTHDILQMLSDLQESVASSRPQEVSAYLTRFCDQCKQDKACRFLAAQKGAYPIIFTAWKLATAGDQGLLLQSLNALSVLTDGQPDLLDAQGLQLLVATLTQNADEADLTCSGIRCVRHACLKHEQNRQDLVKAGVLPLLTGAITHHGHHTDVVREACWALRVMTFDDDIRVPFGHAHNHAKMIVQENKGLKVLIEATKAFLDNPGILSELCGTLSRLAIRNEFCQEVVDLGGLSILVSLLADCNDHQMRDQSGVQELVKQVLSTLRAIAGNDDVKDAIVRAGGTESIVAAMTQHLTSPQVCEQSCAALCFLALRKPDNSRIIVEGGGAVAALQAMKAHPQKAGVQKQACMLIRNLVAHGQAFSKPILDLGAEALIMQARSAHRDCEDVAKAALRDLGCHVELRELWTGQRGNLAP
UniProt Q8N6S5: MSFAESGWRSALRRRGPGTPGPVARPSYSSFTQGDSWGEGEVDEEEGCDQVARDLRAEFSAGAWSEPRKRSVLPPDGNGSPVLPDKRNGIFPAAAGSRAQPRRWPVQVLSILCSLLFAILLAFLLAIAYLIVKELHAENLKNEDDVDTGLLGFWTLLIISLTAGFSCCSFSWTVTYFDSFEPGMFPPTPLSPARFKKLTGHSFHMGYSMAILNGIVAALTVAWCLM
UniProt Q96DT6: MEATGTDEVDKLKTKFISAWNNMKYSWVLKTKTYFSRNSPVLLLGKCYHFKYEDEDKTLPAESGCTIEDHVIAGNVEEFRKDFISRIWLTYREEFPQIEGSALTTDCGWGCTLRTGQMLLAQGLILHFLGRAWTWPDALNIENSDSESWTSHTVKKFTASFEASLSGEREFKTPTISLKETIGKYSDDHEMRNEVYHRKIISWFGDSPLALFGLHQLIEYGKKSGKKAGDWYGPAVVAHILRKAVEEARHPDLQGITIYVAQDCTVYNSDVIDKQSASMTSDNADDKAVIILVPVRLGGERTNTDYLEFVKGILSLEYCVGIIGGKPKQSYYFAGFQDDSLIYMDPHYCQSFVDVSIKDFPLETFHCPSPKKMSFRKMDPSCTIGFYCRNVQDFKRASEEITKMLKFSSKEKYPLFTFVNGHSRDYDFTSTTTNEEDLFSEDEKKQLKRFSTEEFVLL
UniProt P15289: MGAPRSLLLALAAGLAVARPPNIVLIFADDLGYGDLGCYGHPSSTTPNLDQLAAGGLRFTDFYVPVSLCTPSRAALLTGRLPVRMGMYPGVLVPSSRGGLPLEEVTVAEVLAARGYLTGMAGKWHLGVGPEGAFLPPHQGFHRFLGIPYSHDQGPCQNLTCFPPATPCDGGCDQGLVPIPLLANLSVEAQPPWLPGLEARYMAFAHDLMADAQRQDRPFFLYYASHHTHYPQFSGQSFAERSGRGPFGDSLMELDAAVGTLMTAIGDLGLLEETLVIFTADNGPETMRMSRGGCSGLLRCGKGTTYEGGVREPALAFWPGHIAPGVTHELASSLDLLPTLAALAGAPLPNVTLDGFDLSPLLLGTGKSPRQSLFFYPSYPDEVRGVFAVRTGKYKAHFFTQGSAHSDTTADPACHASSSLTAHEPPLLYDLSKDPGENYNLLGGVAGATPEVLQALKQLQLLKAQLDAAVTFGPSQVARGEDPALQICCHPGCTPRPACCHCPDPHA
UniProt P17544: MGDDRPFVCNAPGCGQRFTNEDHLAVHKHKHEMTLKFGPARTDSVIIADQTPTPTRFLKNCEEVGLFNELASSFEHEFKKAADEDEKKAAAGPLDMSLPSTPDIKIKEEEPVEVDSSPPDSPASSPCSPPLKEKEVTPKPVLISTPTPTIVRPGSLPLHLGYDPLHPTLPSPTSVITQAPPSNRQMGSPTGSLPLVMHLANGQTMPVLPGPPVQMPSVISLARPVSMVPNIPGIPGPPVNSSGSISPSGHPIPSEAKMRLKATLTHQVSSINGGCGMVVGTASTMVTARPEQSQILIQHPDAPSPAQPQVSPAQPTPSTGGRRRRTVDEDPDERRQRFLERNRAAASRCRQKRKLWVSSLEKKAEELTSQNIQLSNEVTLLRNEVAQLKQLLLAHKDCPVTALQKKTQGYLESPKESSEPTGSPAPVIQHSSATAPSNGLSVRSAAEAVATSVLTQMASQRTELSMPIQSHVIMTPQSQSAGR
UniProt Q9UH62: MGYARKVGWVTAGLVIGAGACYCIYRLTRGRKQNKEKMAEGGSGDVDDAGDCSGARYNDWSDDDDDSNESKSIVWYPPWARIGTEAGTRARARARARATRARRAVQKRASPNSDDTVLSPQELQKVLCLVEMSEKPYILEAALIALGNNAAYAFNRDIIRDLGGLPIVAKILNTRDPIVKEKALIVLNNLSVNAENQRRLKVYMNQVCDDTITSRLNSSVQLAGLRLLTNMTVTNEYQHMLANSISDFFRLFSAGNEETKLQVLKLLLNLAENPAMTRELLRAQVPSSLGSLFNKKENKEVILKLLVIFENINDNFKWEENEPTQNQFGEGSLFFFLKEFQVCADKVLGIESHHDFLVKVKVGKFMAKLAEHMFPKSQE
UniProt P36405: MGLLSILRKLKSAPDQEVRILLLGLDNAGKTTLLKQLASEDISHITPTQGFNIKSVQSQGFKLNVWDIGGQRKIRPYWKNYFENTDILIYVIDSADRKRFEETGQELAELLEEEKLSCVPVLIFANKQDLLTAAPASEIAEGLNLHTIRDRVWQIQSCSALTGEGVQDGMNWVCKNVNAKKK
UniProt O75915: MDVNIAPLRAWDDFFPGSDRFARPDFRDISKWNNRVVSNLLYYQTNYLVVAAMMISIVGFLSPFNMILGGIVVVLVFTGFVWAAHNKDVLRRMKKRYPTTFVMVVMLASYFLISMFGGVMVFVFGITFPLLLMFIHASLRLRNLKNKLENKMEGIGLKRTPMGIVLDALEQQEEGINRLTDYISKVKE
UniProt P36543, whole entry, looked up: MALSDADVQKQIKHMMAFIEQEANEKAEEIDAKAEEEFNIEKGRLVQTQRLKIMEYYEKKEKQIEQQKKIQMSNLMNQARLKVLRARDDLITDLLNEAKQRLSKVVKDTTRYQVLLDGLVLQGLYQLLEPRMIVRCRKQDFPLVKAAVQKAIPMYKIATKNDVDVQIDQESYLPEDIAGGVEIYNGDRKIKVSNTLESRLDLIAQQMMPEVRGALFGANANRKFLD
UniProt Q8N5I2: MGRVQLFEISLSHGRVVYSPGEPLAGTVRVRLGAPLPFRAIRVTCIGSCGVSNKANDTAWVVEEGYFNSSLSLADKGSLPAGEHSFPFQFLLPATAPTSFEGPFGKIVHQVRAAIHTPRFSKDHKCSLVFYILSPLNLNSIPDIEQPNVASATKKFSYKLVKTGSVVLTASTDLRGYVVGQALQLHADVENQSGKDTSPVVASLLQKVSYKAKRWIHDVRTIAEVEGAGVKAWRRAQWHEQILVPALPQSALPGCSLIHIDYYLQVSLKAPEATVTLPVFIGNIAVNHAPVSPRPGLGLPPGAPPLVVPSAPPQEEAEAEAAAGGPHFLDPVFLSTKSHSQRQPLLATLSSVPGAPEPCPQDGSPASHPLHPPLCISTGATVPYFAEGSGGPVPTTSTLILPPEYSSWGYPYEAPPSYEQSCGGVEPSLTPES
UniProt L0R819, whole entry, looked up: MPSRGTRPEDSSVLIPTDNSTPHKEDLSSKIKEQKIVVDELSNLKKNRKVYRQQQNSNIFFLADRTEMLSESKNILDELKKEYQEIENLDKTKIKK
UniProt P18846: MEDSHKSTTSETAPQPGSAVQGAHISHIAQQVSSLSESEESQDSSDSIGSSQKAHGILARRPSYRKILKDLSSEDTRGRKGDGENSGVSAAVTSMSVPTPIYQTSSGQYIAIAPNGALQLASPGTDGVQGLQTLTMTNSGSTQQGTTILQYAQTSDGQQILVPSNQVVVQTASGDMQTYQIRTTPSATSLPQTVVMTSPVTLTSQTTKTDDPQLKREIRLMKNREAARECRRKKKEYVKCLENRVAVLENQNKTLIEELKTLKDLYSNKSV
UniProt P54709, whole entry, looked up: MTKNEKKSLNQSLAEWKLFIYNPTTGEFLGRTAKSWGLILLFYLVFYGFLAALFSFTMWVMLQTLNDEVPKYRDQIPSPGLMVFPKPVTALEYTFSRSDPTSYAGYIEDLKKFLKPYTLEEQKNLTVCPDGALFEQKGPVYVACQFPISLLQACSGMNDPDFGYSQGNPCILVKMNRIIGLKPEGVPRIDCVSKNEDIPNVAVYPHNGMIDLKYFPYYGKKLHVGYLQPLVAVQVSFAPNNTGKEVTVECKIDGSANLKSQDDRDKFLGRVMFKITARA
UniProt Q15904, whole entry, looked up: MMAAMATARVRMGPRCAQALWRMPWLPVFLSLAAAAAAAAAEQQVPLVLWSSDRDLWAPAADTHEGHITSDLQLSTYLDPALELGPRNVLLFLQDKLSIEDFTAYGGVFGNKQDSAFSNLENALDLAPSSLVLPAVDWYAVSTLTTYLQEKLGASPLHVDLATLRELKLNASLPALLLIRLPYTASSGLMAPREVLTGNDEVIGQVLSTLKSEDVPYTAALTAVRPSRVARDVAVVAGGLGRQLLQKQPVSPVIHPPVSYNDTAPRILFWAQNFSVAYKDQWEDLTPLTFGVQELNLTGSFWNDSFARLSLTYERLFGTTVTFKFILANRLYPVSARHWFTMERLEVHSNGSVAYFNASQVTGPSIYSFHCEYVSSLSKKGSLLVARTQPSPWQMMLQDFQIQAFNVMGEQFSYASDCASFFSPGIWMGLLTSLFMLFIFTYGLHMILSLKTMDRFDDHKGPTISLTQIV

Columns and labels:
Assay in all cases: log2 fold change, soluble protein after heating vs DMSO (PISA); higher = thermal stabilisation; K562 cells, 10 uM, 30 min; active = over 0.2 and 3.5 SD of the protein, either way, in both replicates (recomputed)
[1] = compound: C1=CC=C(C=C1)[C@H](COC2=CC3=C(C=C2)NC(=O)N3)NC(=O)C4=CC=CN(C4=O)CC5=CC(=C(C=C5)F)F
How it was run: (§1)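 K562 cells at 2×10^6 cells/mL were given 10 μM compound for 30 min. Aliquots then went through 3 min of heating across 48°C-58°C, were pooled, and were extracted in PBS with 0.5% NP-40 at 4°C, and the supernatant after 21,000xg for 90 min was quantified by TMTpro 16plex LC-MS/MS with channel sums equalised. Thermal stability relative to control samples, from duplicates, is given as log2 fold change.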

[2] = compound: CC1=C(SC2=C1C(=N[C@H](C3=NN=C(N32)C)CC(=O)N)C4=CC=C(C=C4)Cl)C
How it was run: as §1

[3] = compound: CC1=C2C(=CC=C1)N=C(N(C2=O)C3=CC=CC=C3C)CN4C=NC5=C(N=CN=C54)N
How it was run: as §1

[4] = compound: Cc1sc2c(c1C)C(c1ccc(Cl)cc1)=N[C@@H](CC(=O)OC(C)(C)C)c1nnc(C)n1-2
How it was run: as §1

[5] = compound: c1ccc([C@@H]2C[C@H]2NC2CCNCC2)cc1
How it was run: as §1

| Target | log2 fold change [1] | log2 fold change [2] | log2 fold change [3] | log2 fold change [4] | log2 fold change [5] |
| --- | --- | --- | --- | --- | --- |
| ATG12 (UniProt O94817) | inactive: -0.027 | inactive: 0.058 | inactive: 0.089 | inactive: -0.012 | inactive: -0.012 |
| ATP6V1H (UniProt Q9UI12) | inactive: -0.003 | inactive: 0.065 | inactive: 0.029 | inactive: -0.019 | inactive: -0.116 |
| ATP2A3 isoform 2 (UniProt Q93084) | inactive: -0.01 | inactive: 0.035 | inactive: 0.036 | inactive: -0.002 | inactive: 0.01 |
| ATP6V1C1 (UniProt P21283) | inactive: -0.011 | inactive: 0.004 | inactive: 0.05 | inactive: -0.002 | inactive: -0.039 |
| ATP5MD (UniProt Q96IX5) | inactive: 0.093 | inactive: 0.09 | inactive: 0.07 | inactive: -0.084 | inactive: -0.025 |
| ARPC2 (UniProt O15144) | inactive: 0.02 | inactive: 0.019 | inactive: 0.036 | inactive: -0.033 | inactive: 0.04 |
| ATG9A (UniProt Q7Z3C6) | inactive: 0.018 | inactive: 0.014 | inactive: 0.021 | inactive: -0.028 | inactive: -0.05 |
| ARMC6 (UniProt Q6NXE6) | inactive: -0.044 | inactive: -0.125 | inactive: -0.039 | inactive: 0.203 | inactive: -0.026 |
| ARL6IP6 (UniProt Q8N6S5) | inactive: -0.003 | inactive: 0.113 | inactive: 0.08 | inactive: 0.164 | inactive: 0.118 |
| ATF7IP isoform 4 (UniProt Q6VMQ6) | inactive: -0.241 | inactive: 0.001 | inactive: 0.149 | inactive: 0.207 | inactive: 0.045 |
| ATG4C (UniProt Q96DT6) | inactive: -0.247 | inactive: 0.058 | inactive: 0.049 | inactive: -0.344 | inactive: -0.142 |
| ASF1B (UniProt Q9NVP2) | inactive: -0.06 | inactive: -0.018 | inactive: 0.07 | inactive: 0.018 | inactive: 0.092 |
| ATP6V0A2 (UniProt Q9Y487) | inactive: 0.018 | inactive: -0.044 | inactive: -0.007 | inactive: -0.059 | inactive: -0.014 |
| ATP1A1 (UniProt P05023) | inactive: 0.009 | inactive: 0.051 | inactive: -0.045 | inactive: 0 | inactive: -0.01 |
| ARSA (UniProt P15289) | inactive: 0.119 | inactive: 0.051 | inactive: -0.009 | inactive: 0.015 | inactive: -0.048 |
| ATP11C (UniProt Q8NB49) | inactive: -0.012 | inactive: 0.073 | inactive: 0.05 | inactive: -0.043 | inactive: 0.026 |
| ATG13 isoform 5 (UniProt O75143) | inactive: -0.012 | inactive: 0.064 | inactive: -0.007 | inactive: 0.01 | inactive: 0.061 |
| ASPH (UniProt Q12797) | inactive: 0.057 | inactive: -0.015 | inactive: -0.046 | inactive: 0.021 | inactive: 0.042 |
| ATF7 isoform 6 (UniProt P17544) | inactive: -0.097 | inactive: 0 | inactive: -0.187 | inactive: 0.184 | inactive: -0.034 |
| ATP13A1 (UniProt Q9HD20) | inactive: -0.023 | inactive: 0.056 | inactive: 0.036 | inactive: -0.058 | inactive: 0.033 |
| ARIH1 (UniProt Q9Y4X5) | inactive: -0.024 | inactive: -0.015 | inactive: 0.063 | inactive: -0.015 | inactive: 0.027 |
| ARPP19 (UniProt P56211) | inactive: 0.003 | inactive: 0.021 | inactive: -0.076 | inactive: 0.031 | inactive: -0.007 |
| ATP2A2 (UniProt P16615) | inactive: -0.029 | inactive: 0.068 | inactive: 0.042 | inactive: -0.026 | inactive: -0.022 |
| ATP5F1E (UniProt P56381) | inactive: 0.042 | inactive: -0.011 | inactive: -0.071 | inactive: 0.023 | inactive: 0.048 |
| ATG101 (UniProt Q9BSB4) | inactive: 0.04 | inactive: 0.052 | inactive: -0.009 | inactive: -0.071 | inactive: 0.089 |
| ATP7B (UniProt P35670) | inactive: 0 | inactive: 0.094 | inactive: 0.014 | inactive: 0.022 | inactive: 0.076 |
| ARL6IP1 (UniProt Q15041) | inactive: -0.034 | inactive: -0.031 | inactive: -0.051 | inactive: -0.049 | inactive: 0.044 |

Look-ups from the list:
ATP2A2 (UniProt P16615) | log2 fold change [1]: inactive: -0.029
ATG9A (UniProt Q7Z3C6) | log2 fold change [1]: inactive: 0.018
ARSA (UniProt P15289) | log2 fold change [4]: inactive: 0.015
ARIH1 (UniProt Q9Y4X5) | log2 fold change [1]: inactive: -0.024

Record cards, from the list above. Order of values: log2 fold change [1]	log2 fold change [2]	log2 fold change [3]	log2 fold change [4]	log2 fold change [5]
ARPP19 (UniProt P56211) is entered as inactive: 0.003	inactive: 0.021	inactive: -0.076	inactive: 0.031	inactive: -0.007
ATP5MD (UniProt Q96IX5) is entered as inactive: 0.093	inactive: 0.09	inactive: 0.07	inactive: -0.084	inactive: -0.025

The listing continues:

| Target | log2 fold change [1] | log2 fold change [2] | log2 fold change [3] | log2 fold change [4] | log2 fold change [5] |
| --- | --- | --- | --- | --- | --- |
| ATM (UniProt Q13315) | inactive: 0.031 | inactive: 0.107 | inactive: 0.066 | inactive: -0.137 | inactive: -0.006 |
| ATP12A isoform 2 (UniProt P54707) | inactive: -0.027 | inactive: 0.062 | inactive: 0.052 | inactive: -0.044 | inactive: -0.043 |
| ARMCX3 (UniProt Q9UH62) | inactive: -0.16 | inactive: -0.061 | inactive: 0.305 | inactive: -0.115 | inactive: 0.041 |
| ARL3 (UniProt P36405) | inactive: -0.002 | inactive: 0.04 | inactive: 0.038 | inactive: -0.06 | inactive: -0.005 |
| ARPC3 (UniProt O15145) | inactive: 0.054 | inactive: 0.016 | inactive: -0.001 | inactive: -0.005 | inactive: 0.005 |
| ATG16L1 (UniProt Q676U5) | inactive: -0.018 | inactive: 0.047 | inactive: 0.023 | inactive: -0.011 | inactive: -0.013 |
| ARL6IP5 (UniProt O75915) | inactive: 0.029 | inactive: 0.081 | inactive: 0.032 | inactive: -0.006 | inactive: 0.002 |
| ATP11A (UniProt P98196) | inactive: 0.001 | inactive: -0.003 | inactive: 0.085 | inactive: -0.034 | inactive: 0.062 |
| ATP6V1E1 (UniProt P36543) | inactive: 0.001 | inactive: 0.041 | inactive: 0.031 | inactive: -0.004 | inactive: -0.086 |
| ASNA1 (UniProt O43681) | inactive: 0.043 | inactive: 0.005 | inactive: 0.003 | inactive: 0 | inactive: 0.003 |
| ATP1B1 (UniProt P05026) | inactive: -0.083 | inactive: 0.018 | inactive: -0.044 | inactive: 0.044 | inactive: 0.091 |
| ATP5F1A (UniProt P25705) | inactive: -0.009 | inactive: -0.018 | inactive: -0.019 | inactive: 0.013 | inactive: 0.012 |
| ATP7A isoform 3 (UniProt Q04656) | inactive: 0.021 | inactive: 0.044 | inactive: 0.07 | inactive: 0.02 | inactive: -0.021 |
| ATP6V0A1 isoform 3 (UniProt Q93050) | inactive: 0.115 | inactive: -0.07 | inactive: 0.005 | inactive: -0.07 | inactive: -0.149 |
| ARRDC1 (UniProt Q8N5I2) | inactive: 0.005 | active: -0.462 | inactive: -0.062 | inactive: -0.1 | inactive: -0.037 |
| ATF2 (UniProt P15336) | inactive: 0.003 | inactive: -0.013 | inactive: 0.086 | inactive: 0.071 | inactive: -0.05 |
| ASDURF (UniProt L0R819) | inactive: 0.061 | inactive: -0.025 | inactive: -0.022 | inactive: 0.063 | inactive: 0.001 |
| ARL15 (UniProt Q9NXU5) | inactive: 0.001 | inactive: 0.121 | inactive: 0.033 | inactive: -0.092 | inactive: -0.008 |
| ATP6AP2 (UniProt O75787) | inactive: 0.021 | inactive: 0.075 | inactive: -0.008 | inactive: -0.01 | inactive: -0.062 |
| ATF1 (UniProt P18846) | inactive: -0.054 | inactive: 0.11 | inactive: -0.001 | inactive: -0.014 | active: -0.391 |
| ASH2L (UniProt Q9UBL3) | inactive: 0.016 | inactive: -0.013 | inactive: 0.081 | inactive: -0.031 | inactive: 0.005 |
| ASPM (UniProt Q8IZT6) | inactive: -0.064 | inactive: -0.003 | inactive: 0.073 | inactive: 0.032 | inactive: 0.042 |
| ATP1B3 (UniProt P54709) | inactive: 0.012 | inactive: 0.042 | inactive: 0.001 | inactive: 0.002 | inactive: 0.006 |
| ATP6V0C (UniProt P27449) | inactive: 0.024 | inactive: -0.156 | inactive: -0.543 | inactive: -0.228 | inactive: -0.081 |
| ATP6AP1 (UniProt Q15904) | inactive: 0.014 | inactive: -0.069 | inactive: -0.009 | inactive: -0.055 | inactive: -0.022 |
| ATP5F1B (UniProt P06576) | inactive: 0.012 | inactive: 0.025 | inactive: 0.022 | inactive: -0.002 | inactive: 0.011 |
